# Measured values as given in PubChem BioAssay (EPA / NIEHS).
# The chains behind the UniProt entries cited, without tags or fusion partners. Where a name states a change or a piece, a line headed by the entry shows the natural chain unless it says otherwise.
# UniProt P04386, whole entry, looked up: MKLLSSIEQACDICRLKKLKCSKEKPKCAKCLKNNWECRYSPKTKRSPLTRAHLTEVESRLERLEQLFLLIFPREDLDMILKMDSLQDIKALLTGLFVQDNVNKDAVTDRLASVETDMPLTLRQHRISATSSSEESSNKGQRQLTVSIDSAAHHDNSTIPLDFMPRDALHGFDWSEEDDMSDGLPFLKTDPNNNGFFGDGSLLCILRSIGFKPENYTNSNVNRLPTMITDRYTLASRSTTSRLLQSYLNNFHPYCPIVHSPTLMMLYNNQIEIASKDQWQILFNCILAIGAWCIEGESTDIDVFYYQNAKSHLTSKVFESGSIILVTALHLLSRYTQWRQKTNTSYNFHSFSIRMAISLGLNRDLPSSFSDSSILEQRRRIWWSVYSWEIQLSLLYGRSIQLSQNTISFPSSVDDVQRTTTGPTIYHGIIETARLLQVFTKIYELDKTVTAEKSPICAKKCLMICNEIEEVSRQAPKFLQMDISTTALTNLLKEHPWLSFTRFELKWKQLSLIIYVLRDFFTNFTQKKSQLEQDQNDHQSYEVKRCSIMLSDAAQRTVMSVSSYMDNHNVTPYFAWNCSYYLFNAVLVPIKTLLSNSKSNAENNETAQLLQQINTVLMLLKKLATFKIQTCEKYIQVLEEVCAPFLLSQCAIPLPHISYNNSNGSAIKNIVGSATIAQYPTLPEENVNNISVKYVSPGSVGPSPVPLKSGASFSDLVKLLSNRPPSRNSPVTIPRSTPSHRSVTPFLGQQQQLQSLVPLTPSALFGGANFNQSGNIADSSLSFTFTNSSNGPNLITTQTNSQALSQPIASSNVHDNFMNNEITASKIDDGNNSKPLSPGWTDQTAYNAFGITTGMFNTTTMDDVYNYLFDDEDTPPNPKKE
# UniProt P57717: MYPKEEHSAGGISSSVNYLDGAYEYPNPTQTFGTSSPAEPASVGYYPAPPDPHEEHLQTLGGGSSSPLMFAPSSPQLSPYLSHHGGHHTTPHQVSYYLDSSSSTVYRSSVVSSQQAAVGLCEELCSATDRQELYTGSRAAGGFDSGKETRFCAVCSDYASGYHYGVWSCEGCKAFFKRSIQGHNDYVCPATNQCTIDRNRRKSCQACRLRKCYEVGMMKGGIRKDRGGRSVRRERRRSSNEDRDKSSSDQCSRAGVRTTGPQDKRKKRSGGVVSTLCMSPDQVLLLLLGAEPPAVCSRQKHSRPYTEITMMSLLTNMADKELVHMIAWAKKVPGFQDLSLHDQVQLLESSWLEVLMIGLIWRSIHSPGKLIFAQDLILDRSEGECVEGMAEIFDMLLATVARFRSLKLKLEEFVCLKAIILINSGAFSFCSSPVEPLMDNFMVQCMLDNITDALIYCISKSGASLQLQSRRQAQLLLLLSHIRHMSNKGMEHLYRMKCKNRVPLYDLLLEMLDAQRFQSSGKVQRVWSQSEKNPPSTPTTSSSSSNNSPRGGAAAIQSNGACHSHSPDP
# UniProt P06212, whole entry, looked up: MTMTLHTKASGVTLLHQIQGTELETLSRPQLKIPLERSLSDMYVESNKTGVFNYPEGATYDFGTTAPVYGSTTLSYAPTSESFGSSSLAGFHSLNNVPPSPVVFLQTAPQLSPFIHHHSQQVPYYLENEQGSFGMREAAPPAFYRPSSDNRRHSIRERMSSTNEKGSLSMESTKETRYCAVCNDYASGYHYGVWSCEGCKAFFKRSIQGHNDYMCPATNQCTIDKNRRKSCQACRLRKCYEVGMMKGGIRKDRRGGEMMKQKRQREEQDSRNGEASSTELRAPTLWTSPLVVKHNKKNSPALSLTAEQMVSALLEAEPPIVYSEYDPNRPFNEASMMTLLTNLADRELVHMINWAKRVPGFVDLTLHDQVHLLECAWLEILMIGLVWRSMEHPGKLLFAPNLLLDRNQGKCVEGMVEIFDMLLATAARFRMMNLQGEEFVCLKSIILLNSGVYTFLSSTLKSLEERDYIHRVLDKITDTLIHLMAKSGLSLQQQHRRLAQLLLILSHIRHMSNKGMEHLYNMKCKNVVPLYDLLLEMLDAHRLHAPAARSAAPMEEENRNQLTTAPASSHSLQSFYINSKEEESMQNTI
# UniProt P03372, whole entry, looked up: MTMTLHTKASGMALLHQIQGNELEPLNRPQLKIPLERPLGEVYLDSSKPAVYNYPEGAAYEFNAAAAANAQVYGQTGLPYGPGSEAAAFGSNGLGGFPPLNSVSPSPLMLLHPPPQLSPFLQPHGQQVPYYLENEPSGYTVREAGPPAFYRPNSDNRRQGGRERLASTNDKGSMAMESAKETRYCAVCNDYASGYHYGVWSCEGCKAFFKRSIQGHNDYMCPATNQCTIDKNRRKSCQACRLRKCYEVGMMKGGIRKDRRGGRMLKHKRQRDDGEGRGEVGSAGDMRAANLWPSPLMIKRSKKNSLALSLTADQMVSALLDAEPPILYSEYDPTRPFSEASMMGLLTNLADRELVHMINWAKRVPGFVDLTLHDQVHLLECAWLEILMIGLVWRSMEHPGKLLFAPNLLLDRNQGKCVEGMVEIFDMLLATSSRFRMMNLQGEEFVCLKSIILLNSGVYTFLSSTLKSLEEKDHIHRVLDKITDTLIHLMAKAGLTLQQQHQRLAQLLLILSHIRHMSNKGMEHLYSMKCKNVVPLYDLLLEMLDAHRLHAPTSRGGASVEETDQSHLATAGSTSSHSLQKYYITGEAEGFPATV
# UniProt P37231: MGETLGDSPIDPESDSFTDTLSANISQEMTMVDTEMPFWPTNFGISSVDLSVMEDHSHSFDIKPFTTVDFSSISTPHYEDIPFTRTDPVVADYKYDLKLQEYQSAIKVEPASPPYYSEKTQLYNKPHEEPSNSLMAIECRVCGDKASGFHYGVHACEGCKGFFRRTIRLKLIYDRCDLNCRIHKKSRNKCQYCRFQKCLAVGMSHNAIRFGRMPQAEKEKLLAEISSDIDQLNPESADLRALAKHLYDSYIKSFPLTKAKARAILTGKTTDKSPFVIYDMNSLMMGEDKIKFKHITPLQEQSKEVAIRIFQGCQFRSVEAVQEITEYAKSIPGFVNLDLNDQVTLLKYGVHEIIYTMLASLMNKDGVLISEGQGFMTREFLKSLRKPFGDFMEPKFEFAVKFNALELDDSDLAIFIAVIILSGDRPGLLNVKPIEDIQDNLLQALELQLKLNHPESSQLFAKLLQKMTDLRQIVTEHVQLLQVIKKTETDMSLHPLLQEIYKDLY
# Where “and” joins values, the source holds several entries; their conditions need not be identical. Equal values may be shown once. Inconclusive means that the source gave no clear call. Such entries were picked first, then a sample of the others. Potencies beside an inconclusive call are fits to weak or partial responses and may not hold up. The source holds several records for some structures; these can differ, active in one and inactive in another. Calls of active or inactive are those of the source. Rule for the calls: active = hit-call score of the fitted dose curve at least 0.9, where 1 is the maximum; inconclusive = response in the unintended direction; inactive = score below 0.9.
# What was measured:
# [1] = molecular target: GAL4 Transcription Factor (Internal Marker), GAL4 (gene 855828) (UniProt P04386); assay: ATG_GAL4_XSP2: Attagene TRANS-FACTORIAL Multi-Species (XSP2) HepG2 Assay for GAL4 Transcription Factor (Internal Marker) (AID 2283814);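 note: GAL4 reporter mRNA background control in MRTU transfected cells not a receptor target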
# Method in brief: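 Background-control readout: gain-of-signal fitted against DMSO. After 24 h exposure of transfected HepG2 (MRTU, GAL4-UAS reporters; 3 nM 6-alpha-fluorotestosterone, 1.5 nM norgestrel present), transcripts quantified by RT-PCR and capillary electrophoresis fluorescence.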
# [2] = system: turtle Androgen Receptor (AR), gene 101947425; assay: ATG_trAR_XSP2: Attagene TRANS-FACTORIAL Multi-Species (XSP2) HepG2 Assay for turtle Androgen Receptor (AR) (AID 2283815);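 for AC50: reporter mRNA from a Gal4 chimera of turtle AR measured by RT-PCR; potency for gain of reporter signal meaning activation above DMSO baseline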
# Method in brief: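 Reporter transcripts were quantified via RT-PCR and capillary electrophoresis and fitted upward against DMSO. Transiently transfected human HepG2 cells carrying NR-Gal4 chimeras were exposed 24 h, with 3 nM 6-alpha-fluorotestosterone plus 1.5 nM norgestrel added.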
# [3] = system: zebrafish Estrogen Receptor (ER2a), gene 317734; assay: ATG_zfER2a_XSP2: Attagene TRANS-FACTORIAL Multi-Species (XSP2) HepG2 Assay for zebrafish Estrogen Receptor (ER2a) (AID 2283818);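 note: hits raise reporter mRNA so AC50 reflects activation of zebrafish ER2a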
# Method in brief: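 Multiplexed trans-reporter readout: RT-PCR then capillary electrophoresis of reporter transcripts after 24 h compound treatment. Human HepG2 carries transfected zebrafish ER2a-Gal4 chimera; 3 nM 6-alpha-fluorotestosterone plus 1.5 nM norgestrel present. Induction scored against DMSO.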
# [4] = system: frog Androgen Receptor (AR), gene 399456; assay: ATG_frAR_XSP2: Attagene TRANS-FACTORIAL Multi-Species (XSP2) HepG2 Assay for frog Androgen Receptor (AR) (AID 2283824);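 note: reporter mRNA from GAL4-UAS units driven by Xenopus AR-Gal4 chimera; actives raise reporter signal above DMSO so AC50 reflects agonist-like induction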
# Method in brief: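 Reporter transcript induction, read by RT-PCR with fluorescent capillary electrophoresis, in human liver HepG2 cells carrying an exogenous Xenopus AR-Gal4 fusion and GAL4-driven reporters; chemical exposure 24 hours, activity scored upward against DMSO controls.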
# [5] = ATG_M_32_XSP2: Attagene TRANS-FACTORIAL Multi-Species (XSP2) HepG2 Assay for M19 Transcription Factor (Internal Marker) (AID 2283826)
# Method in brief: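 An internal background marker among multiplexed transfected reporters in HepG2 liver cells was measured 24 h after dosing. Androgen receptor stimulation came from 3 nM 6-alpha-fluorotestosterone and 1.5 nM norgestrel.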
# [6] = molecular target: zebrafish Estrogen Receptor (ER1), esr1 (gene 259252) (UniProt P57717); assay: ATG_zfER1_XSP2: Attagene TRANS-FACTORIAL Multi-Species (XSP2) HepG2 Assay for zebrafish Estrogen Receptor (ER1) (AID 2283816)
# Method in brief: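 After 24 h compound exposure, RNA from transfected HepG2 cells was reverse-transcribed and reporter transcripts resolved by capillary electrophoresis. The TRANS format reads exogenous zebrafish ER1-Gal4 chimera activity on GAL4-UAS elements; gain of signal against DMSO.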
# [7] = molecular target: chicken Estrogen Receptor (ERa), ESR1 (gene 396099) (UniProt P06212); assay: ATG_chERa_XSP2: Attagene TRANS-FACTORIAL Multi-Species (XSP2) HepG2 Assay for chicken Estrogen Receptor (ERa) (AID 2283817);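 note: actives raise reporter signal above DMSO so AC50 reflects ER activation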
# Method in brief: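 Reporter mRNA induction read by RT-PCR, fluorescent labelling and capillary electrophoresis after 24 h exposure; positive-direction fit against DMSO baseline. HepG2 cells transfected with multiplexed GAL4-UAS units including chicken ERa chimera; medium contained 3 nM 6-alpha-fluorotestosterone plus 1.5 nM norgestrel.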
# [8] = system: zebrafish Androgen Receptor (AR), gene 100005148; assay: ATG_zfAR_XSP2: Attagene TRANS-FACTORIAL Multi-Species (XSP2) HepG2 Assay for zebrafish Androgen Receptor (AR) (AID 2283825);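 note: hits raise reporter mRNA above DMSO so AC50 reflects agonist-type gain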
# Method in brief: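 After 24 h compound exposure in medium with 3 nM 6-alpha-fluorotestosterone plus 1.5 nM norgestrel, HepG2 cells carrying zebrafish AR–GAL4 reporter constructs were assessed for reporter mRNA gain by RT-PCR and capillary electrophoresis.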
# [9] = system: frog Estrogen Receptor (ER2), gene 100174814; assay: ATG_frER2_XSP2: Attagene TRANS-FACTORIAL Multi-Species (XSP2) HepG2 Assay for frog Estrogen Receptor (ER2) (AID 2283828)
# Method in brief: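 Read-out: reporter transcript levels by RT-PCR with 6-FAM primer extension, HpaI digestion and capillary electrophoresis, scored as induction over DMSO control. Transfected HepG2 carrying Xenopus ER2–GAL4 chimera; compounds incubated 24 h.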
# [10] = system: frog Estrogen Receptor (ER), gene 398734; assay: ATG_frER1_XSP2: Attagene TRANS-FACTORIAL Multi-Species (XSP2) HepG2 Assay for frog Estrogen Receptor (ER) (AID 2283821);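 note: hits raise reporter mRNA above DMSO baseline so potency means agonist or activator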
# Method in brief: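 HepG2 cells transiently transfected with multiplexed GAL4-UAS reporter units expressing chimeric NR-Gal4 proteins (TRANS format) were dosed for 24 h. Reporter mRNA was quantified by RT-PCR, FAM primer extension, HpaI digestion and capillary electrophoresis; gain of signal relative to DMSO.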
# [11] = system: chicken Androgen Receptor (AR), gene 422165; assay: ATG_chAR_XSP2: Attagene TRANS-FACTORIAL Multi-Species (XSP2) HepG2 Assay for chicken Androgen Receptor (AR) (AID 2283819);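 note: hits raise reporter mRNA above DMSO so potency is for activation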
# Method in brief: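 Readout is reporter mRNA induction via RT-PCR/capillary electrophoresis after 24 h chemical exposure, positive direction relative to DMSO. Transiently transfected HepG2 express chimeric chicken AR–GAL4; AR stimulated by 3 nM 6-alpha-fluorotestosterone and 1.5 nM norgestrel.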
# [12] = system: turtle Estrogen Receptor (ERa), gene 101933533; assay: ATG_trERa_XSP2: Attagene TRANS-FACTORIAL Multi-Species (XSP2) HepG2 Assay for turtle Estrogen Receptor (ERa) (AID 2283812);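 note: actives raise reporter signal above DMSO so AC50 reflects agonist activity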
# Method in brief: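 Readout is reporter mRNA quantified by RT-PCR with capillary electrophoresis after 24 h compound exposure, increase relative to DMSO. Uses transiently transfected human HepG2 liver cells carrying a chimeric turtle ERa-Gal4 receptor driving GAL4-UAS reporters.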
# [13] = system: zebrafish Estrogen Receptor (ER2b), gene 317733; assay: ATG_zfER2b_XSP2: Attagene TRANS-FACTORIAL Multi-Species (XSP2) HepG2 Assay for zebrafish Estrogen Receptor (ER2b) (AID 2283823);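 note: fitted upward as reporter gain over DMSO so potency reflects activation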
# Method in brief: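 Transcriptional induction measured as reporter mRNA (RT-PCR, fluorescent capillary electrophoresis) in transiently transfected HepG2 cells after 24 h dosing; DMSO served as negative control and baseline.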
# [14] = molecular target: Estrogen receptor (Homo sapiens) (UniProt P03372); assay: ATG_hERa_XSP2: Attagene TRANS-FACTORIAL Multi-Species (XSP2) HepG2 Assay for human Estrogen Receptor (ERa) (AID 2283827)
# Method in brief: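 Trans-activation of exogenous human ERa-Gal4 chimera read in HepG2 as reporter transcript after 24 h exposure; medium included 3 nM 6-alpha-fluorotestosterone and 1.5 nM norgestrel. Quantified by RT-PCR with capillary electrophoresis, positive-direction fitting against DMSO.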
# [15] = molecular target: Peroxisome proliferator-activated receptor gamma (Homo sapiens) (UniProt P37231); assay: ATG_hPPARg_XSP2: Attagene TRANS-FACTORIAL Multi-Species (XSP2) HepG2 Assay for human Peroxisome Proliferator-activated Receptor gamma (PPARg) (AID 2283829);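 note: actives raise reporter mRNA above DMSO so AC50 reflects PPARg activation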
# Method in brief: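 Human HepG2 cells carried transiently transfected Gal4 reporter units and were treated with chemical for 24 h alongside androgen-receptor stimulants (3 nM 6-alpha-fluorotestosterone, 1.5 nM norgestrel). Reporter transcripts were detected by RT-PCR with capillary electrophoresis, analysed in the positive direction against DMSO.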
compound,measurement,setting,value
COc1ccc(-c2coc3cc(O)cc(O)c3c2=O)cc1,AC50,[1],inconclusive: 1.97 µM
same,AC50,[2],inconclusive: 10 µM and active: 1.81 µM
same,AC50,[3],active: 260 nM and active: 38 nM
same,outcome,[4],inactive
same,AC50,[5],inconclusive: 2.15 µM
O=C(O)/C=C/c1ccccc1,AC50,[2],inconclusive: 100 µM
same,AC50,[6],inconclusive: 100 µM
same,outcome,[7],inactive
same,outcome,[3],inactive
same,AC50,[4],inconclusive: 100 µM
same,AC50,[8],inconclusive: 19.8 µM
same,AC50,[9],inconclusive: 24.2 µM
C[C@]12CC[C@H]3C(=CCc4cc(O)ccc43)[C@@H]1CCC2=O,AC50,[1],inconclusive: 0.0336 µM
same,AC50,[2],inconclusive: 0.0743 µM
same,AC50,[10],active: 15.9 nM
same,AC50,[4],inconclusive: 0.0369 µM
same,AC50,[5],inconclusive: 0.0242 µM
CN(C)C(=O)Nc1ccc(Cl)c(Cl)c1,AC50,[1],inconclusive: 100 µM
same,AC50,[2],inconclusive: 100 µM and inconclusive: 64.9 µM
same,AC50,[4],inconclusive: 100 µM
same,AC50,[5],inconclusive: 27.1 µM
CCCOC(=O)c1ccc(O)cc1,outcome,[1],inactive
same,outcome,[2],inactive
same,AC50,[11],inconclusive: 100 µM and active: 32 µM
same,AC50,[4],inconclusive: 168 µM
same,outcome,[4],inactive
same,AC50,[8],inconclusive: 100 µM and inconclusive: 27.7 µM
same,AC50,[9],active: 38.2 µM and active: 1.53 µM
COc1ccc(C(=O)c2ccccc2)c(O)c1,AC50,[2],inconclusive: 19.8 µM and inconclusive: 16 µM
same,AC50,[7],active: 6.73 µM
same,outcome,[7],inactive
same,AC50,[3],active: 9.9 µM
same,AC50,[4],inconclusive: 76.8 µM and inconclusive: 24.4 µM
same,AC50,[8],inconclusive: 55.6 µM and inconclusive: 27.6 µM
CCCCCC(=O)O[C@]1(C(C)=O)CC[C@H]2[C@@H]3CCC4=CC(=O)CC[C@]4(C)[C@H]3CC[C@@]21C,AC50,[12],inconclusive: 12.6 µM and inconclusive: 27.9 µM
same,AC50,[2],inconclusive: 443 nM and inconclusive: 83.2 nM
same,AC50,[7],inconclusive: 56.3 µM and inconclusive: 27.7 µM
same,AC50,[3],inconclusive: 100 µM
same,AC50,[11],inconclusive: 20.6 µM and inconclusive: 2.58 µM
same,AC50,[10],inconclusive: 206 nM
same,AC50,[13],active: 7.02 µM and inconclusive: 100 µM
same,AC50,[4],inconclusive: 80.6 nM and inconclusive: 89.5 nM
same,AC50,[8],inconclusive: 1.58 µM and inconclusive: 1.19 µM
same,AC50,[5],inconclusive: 184 µM
same,AC50,[14],inconclusive: 147 µM and inconclusive: 61.2 µM
same,AC50,[9],inconclusive: 39.3 µM
CCC(=C(c1ccc(O)cc1)c1ccc(OCCN(C)C)cc1)c1ccccc1,AC50,[12],inconclusive: 36.4 nM and inconclusive: 102 nM
same,AC50,[2],inconclusive: 2.78 µM and inconclusive: 7.1 µM
same,outcome,[6],inactive
same,AC50,[7],inconclusive: 7.54 nM and inconclusive: 18.1 nM
same,AC50,[3],inconclusive: 5.94 nM and inconclusive: 1.41 µM
same,AC50,[10],inconclusive: 13.3 nM and inconclusive: 5.85 nM
same,AC50,[13],inconclusive: 381 nM
same,AC50,[4],inconclusive: 7.2 µM and inconclusive: 4.19 µM
same,AC50,[5],inconclusive: 0.0101 µM
same,AC50,[9],inconclusive: 7.1 µM
O=c1c(-c2ccc(O)cc2)coc2cc(O)ccc12,AC50,[12],active: 994 nM and active: 448 nM
same,AC50,[1],inconclusive: 2.67 µM
same,AC50,[2],active: 2.32 µM
same,outcome,[2],inactive
same,AC50,[4],inconclusive: 10 µM
same,outcome,[4],inactive
same,outcome,[5],inactive
same,AC50,[15],inconclusive: 2.29 µM
C#C[C@]1(O)CC[C@H]2[C@@H]3CCc4cc(OC)ccc4[C@H]3CC[C@@]21C,AC50,[1],inconclusive: 0.0274 µM
same,AC50,[2],inconclusive: 16.2 nM and inconclusive: 71.1 nM
same,AC50,[11],inconclusive: 26 nM and inconclusive: 6.44 nM
same,AC50,[4],inconclusive: 11.7 nM and inconclusive: 32.7 nM
same,AC50,[8],inconclusive: 9.04 nM and inconclusive: 29.5 nM
same,AC50,[5],inconclusive: 0.00981 µM
same,AC50,[15],inconclusive: 0.0017 µM
N[C@@H](Cc1cc(I)c(Oc2ccc(O)c(I)c2)c(I)c1)C(=O)O,outcome,[1],inactive
same,AC50,[2],inconclusive: 46.3 µM
same,outcome,[2],inactive
same,AC50,[4],inconclusive: 1 µM and inconclusive: 13 µM
same,outcome,[5],inactive
same,outcome,[9],inactive

# 3 entries drawn at random from those above:
compound,measurement,setting,value
CN(C)C(=O)Nc1ccc(Cl)c(Cl)c1,AC50,[4],inconclusive: 100 µM
CCCCCC(=O)O[C@]1(C(C)=O)CC[C@H]2[C@@H]3CCC4=CC(=O)CC[C@]4(C)[C@H]3CC[C@@]21C,AC50,[14],inconclusive: 147 µM and inconclusive: 61.2 µM
C#C[C@]1(O)CC[C@H]2[C@@H]3CCc4cc(OC)ccc4[C@H]3CC[C@@]21C,AC50,[11],inconclusive: 26 nM and inconclusive: 6.44 nM
